Test results as given in US12350344 (dated 2025).

Assay: general procedure: solution-phase peptide synthesis; N-ethoxycarbonyl-2-ethoxy-1,2-dihydroquinoline
Details: coupling step

Substance: N-[4-(11,12-Didehydrodibenzo[b,f]azocin-5 (6H)-yl)-4-oxobutanoyl]glycylglycyl-L-valyl-N-{4-[({[(11a′S)-11′-hydroxy-7′-methoxy-8′-(3-{[(11aS)-7-methoxy-2-(3-methoxyphenyl)-5-oxo-5,10,11,11a-tetrahydro-1H-pyrrolo[2,1-c][1,4]benzodiazepin-8-yl]oxy}propoxy)-5′-oxo-11′,11a′-dihydro-1′H-spiro[cyclopropane-1,2′-pyrrolo[2,1-c][1,4]benzodiazepine]-10′(5′H)-yl]carbonyl}oxy)methyl]phenyl}-L-alaninamide
- step yield: 52%
